PubChem BioAssay AID1259405, NCATS, 2018
The deposit covers about 50,000 reagents; below is a random part of them. About 4,000 of them (8%) count as active. 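Mouse siRNA library applied to hamster cells; one well for each siRNA.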 The numbers tell different reagents against one gene apart.

- Screen: 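Mouse-designed siRNAs used to find CHO productivity engineering targets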 (primary screen)
- Cells: Chinese hamster CHO-K1 ovary cells with stable secreted eGFP expression
- Knock-down reagent: single siRNA against mouse genes, 0.8 pmol siRNA per well (2 µl of 400 nM stock)
- Time to read-out: 3 days
- Measured: 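Per-well intracellular GFP measured by laser scanning cytometry, plus viability from ATP luminescence, each relative to plate median of non-targeting control wells, in %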
- Reading the numbers: GFP, % of control: higher = more GFP per well, higher productivity; viability (ATP), % of control: higher = more viable cells (more ATP)
- Hit rule: 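Called active when intracellular GFP, relative to negative control, is at or above 120%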

| target gene | reagent no. | GFP, % of control | viability (ATP), % of control | activity call |
| --- | --- | --- | --- | --- |
| Or52b3 (olfactory receptor family 52 subfamily B member 3) | 1 | 115 | 83.8 | inactive |
| Or52b3 (olfactory receptor family 52 subfamily B member 3) | 2 | 64.2 | 87 | inactive |
| Or52b3 (olfactory receptor family 52 subfamily B member 3) | 3 | 28.4 | 87.2 | inactive |
| Stmn1 (stathmin 1) | 1 | 71.4 | 52.9 | inactive |
| Stmn1 (stathmin 1) | 2 | 87.8 | 122 | inactive |
| Stmn1 (stathmin 1) | 3 | 159 | 102 | active |
| Cyp27a1 (cytochrome P450, family 27, subfamily a, polypeptide 1) | 1 | 96.7 | 79.9 | inactive |
| Cyp27a1 (cytochrome P450, family 27, subfamily a, polypeptide 1) | 2 | 58 | 85.4 | inactive |
| Cyp27a1 (cytochrome P450, family 27, subfamily a, polypeptide 1) | 3 | 75.6 | 73.6 | inactive |
| Cpne9 (copine family member IX) | 1 | 59.8 | 71.5 | inactive |
| Cpne9 (copine family member IX) | 2 | 52.2 | 43.6 | inactive |
| Cpne9 (copine family member IX) | 3 | 80.8 | 78 | inactive |
| Zfp948 (zinc finger protein 948) | 1 | 60.1 | 53.1 | inactive |
| Zfp948 (zinc finger protein 948) | 2 | 42.4 | 64.6 | inactive |
| Zfp948 (zinc finger protein 948) | 3 | 72.4 | 71.9 | inactive |
| Or1n2 (olfactory receptor family 1 subfamily N member 2) | 1 | 91.4 | 67.5 | inactive |
| Or1n2 (olfactory receptor family 1 subfamily N member 2) | 2 | 112 | 71.5 | inactive |
| Or1n2 (olfactory receptor family 1 subfamily N member 2) | 3 | 64.3 | 97.1 | inactive |
| Atp1b3 (ATPase, Na+/K+ transporting, beta 3 polypeptide) | 1 | 60.4 | 79.4 | inactive |
| Atp1b3 (ATPase, Na+/K+ transporting, beta 3 polypeptide) | 2 | 152 | 77.1 | active |
| Atp1b3 (ATPase, Na+/K+ transporting, beta 3 polypeptide) | 3 | 81.2 | 84.2 | inactive |
| Ttc28 (tetratricopeptide repeat domain 28) | 1 | 132 | 93.6 | active |
| Ttc28 (tetratricopeptide repeat domain 28) | 2 | 75.9 | 90.5 | inactive |
| Ttc28 (tetratricopeptide repeat domain 28) | 3 | 59.4 | 101 | inactive |
| Ugt1a10 (UDP glycosyltransferase 1 family, polypeptide A10) | 1 | 35.6 | 32.9 | inactive |
| Ugt1a10 (UDP glycosyltransferase 1 family, polypeptide A10) | 2 | 78.6 | 90.3 | inactive |
| Ugt1a10 (UDP glycosyltransferase 1 family, polypeptide A10) | 3 | 84.4 | 53.2 | inactive |
| Or1s2 (olfactory receptor family 1 subfamily S member 1) | 1 | 82.3 | 28.7 | inactive |
| Or1s2 (olfactory receptor family 1 subfamily S member 1) | 2 | 83.6 | 65 | inactive |
| Or1s2 (olfactory receptor family 1 subfamily S member 1) | 3 | 54.4 | 75.4 | inactive |
| Slc10a4 | 1 | 57.9 | 55.7 | inactive |
| Slc10a4 | 2 | 157 | 71.7 | active |
| Slc10a4 | 3 | 63.5 | 64.6 | inactive |
| Pik3cg | 1 | 57.7 | 76 | inactive |
| Or10p22 (olfactory receptor family 10 subfamily P member 22) | 1 | 37.3 | 46.7 | inactive |
| Or10p22 (olfactory receptor family 10 subfamily P member 22) | 2 | 87.8 | 92.6 | inactive |
| Or10p22 (olfactory receptor family 10 subfamily P member 22) | 3 | 56.9 | 36.3 | inactive |
| Xbp1 (X-box binding protein 1) | 1 | 124 | 85.9 | active |
| Xbp1 (X-box binding protein 1) | 2 | 57.3 | 63.4 | inactive |
| Xbp1 (X-box binding protein 1) | 3 | 95.4 | 88.2 | inactive |
| Mmp14 (matrix metallopeptidase 14 (membrane-inserted)) | 1 | 63.4 | 65 | inactive |
| Mmp14 (matrix metallopeptidase 14 (membrane-inserted)) | 2 | 109 | 87.9 | inactive |
| Rimkla (ribosomal modification protein rimK-like family member A) | 1 | 62.5 | 73.5 | inactive |
| Rimkla (ribosomal modification protein rimK-like family member A) | 2 | 85.2 | 98.5 | inactive |
| Rimkla (ribosomal modification protein rimK-like family member A) | 3 | 75.6 | 105 | inactive |
| Dmrtc2 | 1 | 98.1 | 101 | inactive |
| Dmrtc2 | 2 | 92 | 69.4 | inactive |
| Dmrtc2 | 3 | 90.8 | 71.3 | inactive |
| Sult1a1 (sulfotransferase family 1A, phenol-preferring, member 1) | 1 | 101 | 89.3 | inactive |
| Sult1a1 (sulfotransferase family 1A, phenol-preferring, member 1) | 2 | 87.3 | 115 | inactive |
| Sult1a1 (sulfotransferase family 1A, phenol-preferring, member 1) | 3 | 97.4 | 124 | inactive |
| Spop (speckle-type BTB/POZ protein) | 1 | 125 | 131 | active |
| Spop (speckle-type BTB/POZ protein) | 2 | 50 | 65.9 | inactive |
| Spop (speckle-type BTB/POZ protein) | 3 | 99.9 | 87.8 | inactive |
| Hpcal4 (hippocalcin-like 4) | 1 | 74.4 | 70.6 | inactive |
| Hpcal4 (hippocalcin-like 4) | 2 | 72.8 | 68.3 | inactive |

15 entries from above in another layout.
target gene,reagent no.,"GFP, % of control","viability (ATP), % of control",activity call
Pik3cg,1,57.7,76,inactive
Or10p22 (olfactory receptor family 10 subfamily P member 22),1,37.3,46.7,inactive
Or10p22 (olfactory receptor family 10 subfamily P member 22),2,87.8,92.6,inactive
Or10p22 (olfactory receptor family 10 subfamily P member 22),3,56.9,36.3,inactive
Xbp1 (X-box binding protein 1),1,124,85.9,active
Xbp1 (X-box binding protein 1),2,57.3,63.4,inactive
Xbp1 (X-box binding protein 1),3,95.4,88.2,inactive
Mmp14 (matrix metallopeptidase 14 (membrane-inserted)),1,63.4,65,inactive
Mmp14 (matrix metallopeptidase 14 (membrane-inserted)),2,109,87.9,inactive
Rimkla (ribosomal modification protein rimK-like family member A),1,62.5,73.5,inactive
Rimkla (ribosomal modification protein rimK-like family member A),2,85.2,98.5,inactive
Rimkla (ribosomal modification protein rimK-like family member A),3,75.6,105,inactive
Dmrtc2,1,98.1,101,inactive
Dmrtc2,2,92,69.4,inactive
Dmrtc2,3,90.8,71.3,inactive

Continued:
| target gene | reagent no. | GFP, % of control | viability (ATP), % of control | activity call |
| --- | --- | --- | --- | --- |
| Nipa2 | 1 | 63.1 | 81.7 | inactive |
| Nipa2 | 2 | 80.6 | 85.6 | inactive |
| Nipa2 | 3 | 94.4 | 95.2 | inactive |
| Sebox (SEBOX homeobox) | 1 | 78.4 | 77.5 | inactive |
| Sebox (SEBOX homeobox) | 2 | 60.7 | 55.3 | inactive |
| Sebox (SEBOX homeobox) | 3 | 75.4 | 86.1 | inactive |
| Mrgprb3 (MAS-related GPR, member B3) | 1 | 162 | 77.9 | active |
| Mrgprb3 (MAS-related GPR, member B3) | 2 | 79.1 | 76.5 | inactive |
| Mrgprb3 (MAS-related GPR, member B3) | 3 | 66.2 | 52.7 | inactive |
| Ebpl (emopamil binding protein-like) | 1 | 108 | 94.2 | inactive |
| Ebpl (emopamil binding protein-like) | 2 | 107 | 101 | inactive |
| Ebpl (emopamil binding protein-like) | 3 | 74.7 | 79.2 | inactive |
| B330016D10Rik (RIKEN cDNA B330016D10 gene) | 1 | 77.6 | 52.6 | inactive |
| B330016D10Rik (RIKEN cDNA B330016D10 gene) | 2 | 83.9 | 107 | inactive |
| B330016D10Rik (RIKEN cDNA B330016D10 gene) | 3 | 52.9 | 61 | inactive |
| Ndrg4 (N-myc downstream regulated gene 4) | 1 | 63.1 | 51.8 | inactive |
| Ndrg4 (N-myc downstream regulated gene 4) | 2 | 58.7 | 77.8 | inactive |
| Ndrg4 (N-myc downstream regulated gene 4) | 3 | 103 | 66.7 | inactive |
| Nutf2 (nuclear transport factor 2) | 1 | 126 | 91.5 | active |
| Nutf2 (nuclear transport factor 2) | 2 | 50 | 70.5 | inactive |
| Nutf2 (nuclear transport factor 2) | 3 | 61.4 | 51.1 | inactive |
| Gpr26 (G protein-coupled receptor 26) | 1 | 87.3 | 66.5 | inactive |
| Gpr26 (G protein-coupled receptor 26) | 2 | 96.9 | 88.9 | inactive |
| Gpr26 (G protein-coupled receptor 26) | 3 | 98.6 | 86.1 | inactive |
| Eri2 (exoribonuclease 2) | 1 | 72.4 | 58 | inactive |
| Eri2 (exoribonuclease 2) | 2 | 98.5 | 84 | inactive |
| Eri2 (exoribonuclease 2) | 3 | 77.2 | 66.2 | inactive |
| Trmt61a (tRNA methyltransferase 61A) | 1 | 92.8 | 92 | inactive |
| Trmt61a (tRNA methyltransferase 61A) | 2 | 57.8 | 52.8 | inactive |
| Trmt61a (tRNA methyltransferase 61A) | 3 | 108 | 77.4 | inactive |
